PubChem BioAssay AID686938 – Drosophila RNAi Screening Center – 2013
The deposit covers about 23,000 reagents; this is an unselected part of those with a known target gene and a result. In the full data, 75 (0.33%) got an active call. 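Raw plate signals without normalisation; calls rest on plate z-scores that were not deposited; ratio present for only 364 wells.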 Entries without a mark were called inactive. Reagents against one gene are numbered here. A plus sign joins genes that one reagent is predicted to hit. Not stated in the record: the dose of the treatment.

Purpose: 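Looking for CRAC channel components and the factors controlling them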 (primary screen)
System: Drosophila S2R+ cells
Reagents: long dsRNA against Drosophila genes, about 0.25 µg dsRNA per well, roughly 10,000 cells
Time to read-out: 5 days of knock-down before the calcium assay
Challenge: thapsigargin (SERCA pump blocker) to empty calcium stores; entry signal taken 4 min after adding it
Read-out: 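Per-well fluo-4 fluorescence in two replicates, unnormalised, measured in resting cells and 4 min after store depletion by the SERCA blocker thapsigargin; ratio of the two present in few wells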
Reading the numbers: calcium entry signal: higher = stronger calcium signal after store depletion; entry to resting ratio: higher = more calcium entry relative to resting level; resting calcium signal: higher = higher resting calcium signal
Units: calcium entry signal in fluorescence units; resting calcium signal in fluorescence units
Call rule: 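Called when the plate z-score of the entry-to-rest ratio, mean of duplicates, falls below −3; wells with low overall dye signal (Fmax z below −2) or more than five off-targets excluded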
Calls: active = strongly reduced calcium entry; inactive = no strong reduction

With knock-down of CG2794, the record shows calcium entry signal, replicate 1 = 2.32e7; calcium entry signal, replicate 2 = 2.02e7; resting calcium signal, replicate 1 = 1.16e7; resting calcium signal, replicate 2 = 9.98e6.
With knock-down of CG6966 the results were calcium entry signal, replicate 1 = 3.30e7; calcium entry signal, replicate 2 = 4.38e7; resting calcium signal, replicate 1 = 1.59e7; resting calcium signal, replicate 2 = 7.83e7.
CG13070 scored calcium entry signal, replicate 1 = 3.60e7; calcium entry signal, replicate 2 = 4.67e7; resting calcium signal, replicate 1 = 1.75e7; resting calcium signal, replicate 2 = 1.88e7.
Depletion of robo3 (roundabout 3) #1 came out at: calcium entry signal, replicate 1 = 3.70e7; calcium entry signal, replicate 2 = 4.18e7; resting calcium signal, replicate 1 = 1.74e7; resting calcium signal, replicate 2 = 1.68e7.
For robo3 (roundabout 3) #2, the values are calcium entry signal, replicate 1 = 3.99e7; calcium entry signal, replicate 2 = 4.44e7; resting calcium signal, replicate 1 = 1.78e7; resting calcium signal, replicate 2 = 1.83e7.
Depletion of robo3 (roundabout 3) #3 gave: calcium entry signal, replicate 1 = 3.57e7; calcium entry signal, replicate 2 = 4.14e7; resting calcium signal, replicate 1 = 1.76e7; resting calcium signal, replicate 2 = 1.80e7.
Silencing of CG10104 gave: calcium entry signal, replicate 1 = 2.18e7; calcium entry signal, replicate 2 = 3.44e7; resting calcium signal, replicate 1 = 1.14e7; resting calcium signal, replicate 2 = 1.39e7.
For Mur2B (Mucin related 2B) #1 the deposit lists calcium entry signal, replicate 1 = 6.35e7; calcium entry signal, replicate 2 = 5.21e7; entry to resting ratio 2.5; resting calcium signal, replicate 1 = 2.58e7; resting calcium signal, replicate 2 = 2.16e7.
With knock-down of Mur2B (Mucin related 2B) #2, the record shows calcium entry signal, replicate 1 = 4.67e7; calcium entry signal, replicate 2 = 4.25e7; entry to resting ratio 1.9; resting calcium signal, replicate 1 = 2.43e7; resting calcium signal, replicate 2 = 2.07e7.
Silencing of CG16957 came out at: calcium entry signal, replicate 1 = 3.70e7; calcium entry signal, replicate 2 = 2.06e7; resting calcium signal, replicate 1 = 1.69e7; resting calcium signal, replicate 2 = 1.12e7.
With knock-down of eIF3h (eukaryotic translation initiation factor 3 subunit h), the screen gave calcium entry signal, replicate 1 = 2.78e7; resting calcium signal, replicate 1 = 1.55e7.
Knock-down of snRNP-U1-70K (small ribonucleoprotein particle U1 subunit 70K) #1 came out at: calcium entry signal, replicate 1 = 3.24e7; calcium entry signal, replicate 2 = 5.78e7; resting calcium signal, replicate 1 = 1.54e7; resting calcium signal, replicate 2 = 2.35e7.
After knock-down of snRNP-U1-70K (small ribonucleoprotein particle U1 subunit 70K) #2, the screen gave calcium entry signal, replicate 1 = 2.16e7; calcium entry signal, replicate 2 = 3.94e7; resting calcium signal, replicate 1 = 1.38e7; resting calcium signal, replicate 2 = 2.23e7.
For slmo + CG34179, the values are calcium entry signal, replicate 1 = 4.86e7; resting calcium signal, replicate 1 = 2.38e7.
For p130CAS #1 the deposit lists calcium entry signal, replicate 1 = 4.22e7; calcium entry signal, replicate 2 = 3.40e7; resting calcium signal, replicate 1 = 1.94e7; resting calcium signal, replicate 2 = 1.45e7.
Knock-down of p130CAS #2 resulted in: calcium entry signal, replicate 1 = 4.81e7; calcium entry signal, replicate 2 = 4.60e7; resting calcium signal, replicate 1 = 2.09e7; resting calcium signal, replicate 2 = 2.12e7.

Part of the list above, reformatted:
{"Gene": "CG2794", "reagent no.": 1, "calcium entry signal, replicate 1": 2.32e7, "calcium entry signal, replicate 2": 2.02e7, "resting calcium signal, replicate 1": 1.16e7, "resting calcium signal, replicate 2": 9.98e6}
{"Gene": "CG6966", "reagent no.": 1, "calcium entry signal, replicate 1": 3.30e7, "calcium entry signal, replicate 2": 4.38e7, "resting calcium signal, replicate 1": 1.59e7, "resting calcium signal, replicate 2": 7.83e7}

The listing continues:
Silencing of CG8245 came out at: calcium entry signal, replicate 1 = 4.62e7; calcium entry signal, replicate 2 = 2.27e7; resting calcium signal, replicate 1 = 2.37e7; resting calcium signal, replicate 2 = 1.16e7.
CG42853 showed calcium entry signal, replicate 1 = 4.15e7; calcium entry signal, replicate 2 = 4.48e7; resting calcium signal, replicate 1 = 1.91e7; resting calcium signal, replicate 2 = 2.52e7.
After knock-down of CG4133 #1, the screen gave calcium entry signal, replicate 1 = 3.25e7; calcium entry signal, replicate 2 = 2.95e7; resting calcium signal, replicate 1 = 1.75e7; resting calcium signal, replicate 2 = 1.39e7.
With knock-down of CG4133 #2 the results were calcium entry signal, replicate 1 = 4.01e7; calcium entry signal, replicate 2 = 3.17e7; resting calcium signal, replicate 1 = 1.77e7; resting calcium signal, replicate 2 = 1.50e7.
Silencing of Mnn1 (Menin 1) gave: calcium entry signal, replicate 1 = 3.24e7; calcium entry signal, replicate 2 = 3.52e7; resting calcium signal, replicate 1 = 1.66e7; resting calcium signal, replicate 2 = 1.67e7.
Depletion of Rcd6 (Reduction in Cnn dots 6) came out at: calcium entry signal, replicate 1 = 3.74e7; calcium entry signal, replicate 2 = 4.09e7; resting calcium signal, replicate 1 = 1.82e7; resting calcium signal, replicate 2 = 2.03e7.
CG13318 scored calcium entry signal, replicate 1 = 4.97e7; calcium entry signal, replicate 2 = 4.99e7; resting calcium signal, replicate 1 = 2.34e7; resting calcium signal, replicate 2 = 2.31e7.
After knock-down of Rab30, the record shows calcium entry signal, replicate 1 = 3.45e7; calcium entry signal, replicate 2 = 3.87e7; resting calcium signal, replicate 1 = 1.64e7; resting calcium signal, replicate 2 = 1.74e7.
For ttk (tramtrack) #1, the values are calcium entry signal, replicate 1 = 5.00e7; calcium entry signal, replicate 2 = 4.07e7; resting calcium signal, replicate 1 = 2.55e7; resting calcium signal, replicate 2 = 1.85e7.
After knock-down of ttk (tramtrack) #2 the results were calcium entry signal, replicate 1 = 2.02e7; calcium entry signal, replicate 2 = 2.96e7; entry to resting ratio 1.5; resting calcium signal, replicate 1 = 1.33e7; resting calcium signal, replicate 2 = 1.70e7.
For CG15905, the values are calcium entry signal, replicate 1 = 3.61e7; calcium entry signal, replicate 2 = 5.07e7; resting calcium signal, replicate 1 = 1.61e7; resting calcium signal, replicate 2 = 2.21e7.
